Values quoted from earlier work, collected in patent US20200317813A1, “TREATMENT AND DIAGNOSIS OF NON-PROLIFERATIVE DIABETIC RETINOPATHY” (Johann Wolfgang Goethe-Universitat Frankfurt am Main, priority 2016, published 2020).
For at least one compound, name, drawing or mass did not settle the structure.

Details: cited from earlier work

CCCCCCCCCCCCNC(=O)NC12CC3CC(CC(C3)C1)C2 [ADU, N-Adamantyl-N′-dodecyl urea]
metabolic stability: metabolically stable
